Experimental data as given in the supplement of paper PMC10849652.
The other results are listed elsewhere or left out.

Protein sequences, listed by entry. Tags and fused reporters are not part of them. Lines headed by an entry give the natural chain unless they say otherwise; changes in a name come on top.
UniProt Q9Y6M9, whole entry, looked up: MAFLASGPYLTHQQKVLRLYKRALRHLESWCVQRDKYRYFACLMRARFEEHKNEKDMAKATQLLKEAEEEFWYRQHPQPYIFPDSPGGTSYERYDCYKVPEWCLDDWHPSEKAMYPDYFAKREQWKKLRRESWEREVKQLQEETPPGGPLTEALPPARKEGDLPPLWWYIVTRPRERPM
UniProt Q8NEY1: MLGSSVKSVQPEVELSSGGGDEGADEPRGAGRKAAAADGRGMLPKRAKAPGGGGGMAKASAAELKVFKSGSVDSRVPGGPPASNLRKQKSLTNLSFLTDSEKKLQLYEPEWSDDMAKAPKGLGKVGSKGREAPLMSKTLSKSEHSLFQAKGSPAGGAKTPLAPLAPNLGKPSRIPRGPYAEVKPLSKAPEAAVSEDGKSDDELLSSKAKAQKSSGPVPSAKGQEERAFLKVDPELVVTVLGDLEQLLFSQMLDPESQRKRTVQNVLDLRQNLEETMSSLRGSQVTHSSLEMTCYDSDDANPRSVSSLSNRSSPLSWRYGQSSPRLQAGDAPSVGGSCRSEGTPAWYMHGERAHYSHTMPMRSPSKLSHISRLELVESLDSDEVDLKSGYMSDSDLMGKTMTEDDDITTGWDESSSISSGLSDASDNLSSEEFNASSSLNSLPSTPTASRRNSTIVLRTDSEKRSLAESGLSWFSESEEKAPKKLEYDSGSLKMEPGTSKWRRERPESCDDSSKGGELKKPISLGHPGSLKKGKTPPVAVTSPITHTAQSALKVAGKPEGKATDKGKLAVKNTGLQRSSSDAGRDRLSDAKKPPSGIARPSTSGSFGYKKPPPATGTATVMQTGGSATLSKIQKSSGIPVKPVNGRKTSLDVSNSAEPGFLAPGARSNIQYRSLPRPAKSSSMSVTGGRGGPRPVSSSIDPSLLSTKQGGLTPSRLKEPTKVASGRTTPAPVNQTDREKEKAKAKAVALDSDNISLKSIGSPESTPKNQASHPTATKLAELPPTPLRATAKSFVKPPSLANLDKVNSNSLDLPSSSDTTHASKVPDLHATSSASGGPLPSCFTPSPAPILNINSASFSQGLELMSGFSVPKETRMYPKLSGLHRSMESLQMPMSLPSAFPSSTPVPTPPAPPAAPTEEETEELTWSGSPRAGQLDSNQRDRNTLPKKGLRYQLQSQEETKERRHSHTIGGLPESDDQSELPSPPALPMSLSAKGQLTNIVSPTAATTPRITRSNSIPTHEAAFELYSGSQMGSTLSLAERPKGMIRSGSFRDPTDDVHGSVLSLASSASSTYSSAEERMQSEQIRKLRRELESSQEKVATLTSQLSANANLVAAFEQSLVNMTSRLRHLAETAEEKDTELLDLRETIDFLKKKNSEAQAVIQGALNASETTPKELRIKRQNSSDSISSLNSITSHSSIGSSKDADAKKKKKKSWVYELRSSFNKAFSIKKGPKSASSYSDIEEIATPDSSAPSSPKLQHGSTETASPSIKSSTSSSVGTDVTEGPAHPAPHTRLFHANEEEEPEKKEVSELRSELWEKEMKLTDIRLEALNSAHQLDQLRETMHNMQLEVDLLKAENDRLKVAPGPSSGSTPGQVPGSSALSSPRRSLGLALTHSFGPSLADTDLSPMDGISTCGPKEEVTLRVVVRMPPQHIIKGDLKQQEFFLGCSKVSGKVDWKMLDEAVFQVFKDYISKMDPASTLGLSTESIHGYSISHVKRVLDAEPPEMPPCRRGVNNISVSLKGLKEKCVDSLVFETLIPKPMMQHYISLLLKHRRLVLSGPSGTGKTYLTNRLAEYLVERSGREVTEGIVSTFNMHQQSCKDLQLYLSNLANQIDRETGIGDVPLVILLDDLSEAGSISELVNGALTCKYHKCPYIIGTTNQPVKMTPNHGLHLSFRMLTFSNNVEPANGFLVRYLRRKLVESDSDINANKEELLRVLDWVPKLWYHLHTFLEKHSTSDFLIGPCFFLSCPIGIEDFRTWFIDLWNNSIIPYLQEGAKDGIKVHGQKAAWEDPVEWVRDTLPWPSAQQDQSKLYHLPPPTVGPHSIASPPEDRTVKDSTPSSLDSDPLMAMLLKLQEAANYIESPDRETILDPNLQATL
UniProt Q9NXR1: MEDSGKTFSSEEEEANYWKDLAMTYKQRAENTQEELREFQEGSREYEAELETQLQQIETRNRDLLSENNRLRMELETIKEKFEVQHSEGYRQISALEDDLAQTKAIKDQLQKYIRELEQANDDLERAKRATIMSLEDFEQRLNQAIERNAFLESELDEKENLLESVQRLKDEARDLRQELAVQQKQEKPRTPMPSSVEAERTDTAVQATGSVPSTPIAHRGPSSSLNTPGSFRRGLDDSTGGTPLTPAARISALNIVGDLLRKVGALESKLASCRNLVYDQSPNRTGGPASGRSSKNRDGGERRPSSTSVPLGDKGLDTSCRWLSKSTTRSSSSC
UniProt O60934: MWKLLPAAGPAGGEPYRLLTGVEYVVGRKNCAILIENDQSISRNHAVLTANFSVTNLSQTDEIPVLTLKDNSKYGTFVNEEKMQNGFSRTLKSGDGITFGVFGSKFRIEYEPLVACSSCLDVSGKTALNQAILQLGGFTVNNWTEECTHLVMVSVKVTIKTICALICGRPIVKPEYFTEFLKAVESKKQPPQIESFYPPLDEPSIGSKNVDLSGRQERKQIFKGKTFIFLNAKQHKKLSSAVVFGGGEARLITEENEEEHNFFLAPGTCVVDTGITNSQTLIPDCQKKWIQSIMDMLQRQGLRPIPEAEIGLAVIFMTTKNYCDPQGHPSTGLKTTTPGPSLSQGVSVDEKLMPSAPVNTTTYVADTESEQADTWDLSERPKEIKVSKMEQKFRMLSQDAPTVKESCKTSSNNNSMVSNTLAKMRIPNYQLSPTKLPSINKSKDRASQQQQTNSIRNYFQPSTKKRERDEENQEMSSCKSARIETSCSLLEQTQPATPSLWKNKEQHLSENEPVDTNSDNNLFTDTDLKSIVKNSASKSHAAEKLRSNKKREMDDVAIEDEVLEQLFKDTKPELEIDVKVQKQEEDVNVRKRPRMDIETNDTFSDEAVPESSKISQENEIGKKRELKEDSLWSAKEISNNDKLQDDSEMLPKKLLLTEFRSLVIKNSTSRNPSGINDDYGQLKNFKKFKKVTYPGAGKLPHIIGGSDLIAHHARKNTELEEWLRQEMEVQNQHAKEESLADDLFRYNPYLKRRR
UniProt Q9BPX3, whole entry, looked up: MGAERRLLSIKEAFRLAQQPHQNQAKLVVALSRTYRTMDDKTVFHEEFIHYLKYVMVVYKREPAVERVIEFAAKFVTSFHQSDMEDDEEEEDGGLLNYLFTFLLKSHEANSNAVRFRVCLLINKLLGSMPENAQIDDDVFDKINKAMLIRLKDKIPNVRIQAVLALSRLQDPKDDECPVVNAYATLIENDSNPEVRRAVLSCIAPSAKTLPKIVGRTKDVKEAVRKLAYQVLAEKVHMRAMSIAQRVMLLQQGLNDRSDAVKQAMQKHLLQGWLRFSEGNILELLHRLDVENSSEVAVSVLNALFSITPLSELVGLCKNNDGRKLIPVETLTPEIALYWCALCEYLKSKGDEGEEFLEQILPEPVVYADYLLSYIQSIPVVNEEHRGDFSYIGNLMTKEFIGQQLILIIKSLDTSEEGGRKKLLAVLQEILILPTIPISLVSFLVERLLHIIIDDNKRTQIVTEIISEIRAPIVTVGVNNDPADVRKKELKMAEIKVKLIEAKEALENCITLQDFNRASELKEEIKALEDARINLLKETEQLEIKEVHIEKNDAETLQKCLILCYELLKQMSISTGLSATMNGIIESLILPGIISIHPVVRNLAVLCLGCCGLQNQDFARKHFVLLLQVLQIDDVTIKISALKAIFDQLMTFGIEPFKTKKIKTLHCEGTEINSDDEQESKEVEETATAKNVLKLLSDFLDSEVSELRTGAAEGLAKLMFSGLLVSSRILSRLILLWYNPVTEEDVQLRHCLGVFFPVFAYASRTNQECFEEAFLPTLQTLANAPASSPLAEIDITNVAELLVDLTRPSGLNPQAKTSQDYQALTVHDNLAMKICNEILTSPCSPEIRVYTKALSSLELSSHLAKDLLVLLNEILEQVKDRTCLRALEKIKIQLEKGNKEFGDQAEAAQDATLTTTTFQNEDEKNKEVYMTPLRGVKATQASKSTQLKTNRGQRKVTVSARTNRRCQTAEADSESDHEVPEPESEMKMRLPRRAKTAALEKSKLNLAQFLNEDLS
UniProt O75380, whole entry, looked up: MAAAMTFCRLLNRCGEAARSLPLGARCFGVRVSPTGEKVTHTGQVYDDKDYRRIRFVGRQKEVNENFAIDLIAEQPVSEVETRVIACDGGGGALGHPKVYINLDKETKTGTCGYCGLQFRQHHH
UniProt Q8IW45: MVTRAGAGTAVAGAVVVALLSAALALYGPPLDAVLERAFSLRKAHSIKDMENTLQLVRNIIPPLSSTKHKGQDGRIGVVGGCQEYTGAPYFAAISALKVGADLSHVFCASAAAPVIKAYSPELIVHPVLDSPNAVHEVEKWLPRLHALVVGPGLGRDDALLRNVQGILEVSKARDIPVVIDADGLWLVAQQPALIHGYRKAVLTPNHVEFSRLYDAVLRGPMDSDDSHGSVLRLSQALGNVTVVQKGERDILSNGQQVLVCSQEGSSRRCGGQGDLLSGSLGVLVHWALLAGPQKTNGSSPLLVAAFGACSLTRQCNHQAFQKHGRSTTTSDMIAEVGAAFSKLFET
UniProt Q92692, whole entry, looked up: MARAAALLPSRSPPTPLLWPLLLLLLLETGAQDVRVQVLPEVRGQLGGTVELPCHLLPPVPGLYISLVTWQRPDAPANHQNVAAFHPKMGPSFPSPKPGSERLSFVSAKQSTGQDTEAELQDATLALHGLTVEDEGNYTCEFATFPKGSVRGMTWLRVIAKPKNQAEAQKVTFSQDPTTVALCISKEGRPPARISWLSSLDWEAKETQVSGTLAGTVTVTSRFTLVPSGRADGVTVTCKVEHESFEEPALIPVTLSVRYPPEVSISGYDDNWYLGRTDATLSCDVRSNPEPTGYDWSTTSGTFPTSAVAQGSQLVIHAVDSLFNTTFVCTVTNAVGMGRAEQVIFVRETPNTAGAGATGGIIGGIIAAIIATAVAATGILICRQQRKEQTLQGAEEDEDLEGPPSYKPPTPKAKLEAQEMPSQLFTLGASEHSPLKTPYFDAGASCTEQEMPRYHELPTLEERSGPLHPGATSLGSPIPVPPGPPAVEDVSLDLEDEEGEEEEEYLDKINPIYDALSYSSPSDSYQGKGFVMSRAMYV
UniProt P46934: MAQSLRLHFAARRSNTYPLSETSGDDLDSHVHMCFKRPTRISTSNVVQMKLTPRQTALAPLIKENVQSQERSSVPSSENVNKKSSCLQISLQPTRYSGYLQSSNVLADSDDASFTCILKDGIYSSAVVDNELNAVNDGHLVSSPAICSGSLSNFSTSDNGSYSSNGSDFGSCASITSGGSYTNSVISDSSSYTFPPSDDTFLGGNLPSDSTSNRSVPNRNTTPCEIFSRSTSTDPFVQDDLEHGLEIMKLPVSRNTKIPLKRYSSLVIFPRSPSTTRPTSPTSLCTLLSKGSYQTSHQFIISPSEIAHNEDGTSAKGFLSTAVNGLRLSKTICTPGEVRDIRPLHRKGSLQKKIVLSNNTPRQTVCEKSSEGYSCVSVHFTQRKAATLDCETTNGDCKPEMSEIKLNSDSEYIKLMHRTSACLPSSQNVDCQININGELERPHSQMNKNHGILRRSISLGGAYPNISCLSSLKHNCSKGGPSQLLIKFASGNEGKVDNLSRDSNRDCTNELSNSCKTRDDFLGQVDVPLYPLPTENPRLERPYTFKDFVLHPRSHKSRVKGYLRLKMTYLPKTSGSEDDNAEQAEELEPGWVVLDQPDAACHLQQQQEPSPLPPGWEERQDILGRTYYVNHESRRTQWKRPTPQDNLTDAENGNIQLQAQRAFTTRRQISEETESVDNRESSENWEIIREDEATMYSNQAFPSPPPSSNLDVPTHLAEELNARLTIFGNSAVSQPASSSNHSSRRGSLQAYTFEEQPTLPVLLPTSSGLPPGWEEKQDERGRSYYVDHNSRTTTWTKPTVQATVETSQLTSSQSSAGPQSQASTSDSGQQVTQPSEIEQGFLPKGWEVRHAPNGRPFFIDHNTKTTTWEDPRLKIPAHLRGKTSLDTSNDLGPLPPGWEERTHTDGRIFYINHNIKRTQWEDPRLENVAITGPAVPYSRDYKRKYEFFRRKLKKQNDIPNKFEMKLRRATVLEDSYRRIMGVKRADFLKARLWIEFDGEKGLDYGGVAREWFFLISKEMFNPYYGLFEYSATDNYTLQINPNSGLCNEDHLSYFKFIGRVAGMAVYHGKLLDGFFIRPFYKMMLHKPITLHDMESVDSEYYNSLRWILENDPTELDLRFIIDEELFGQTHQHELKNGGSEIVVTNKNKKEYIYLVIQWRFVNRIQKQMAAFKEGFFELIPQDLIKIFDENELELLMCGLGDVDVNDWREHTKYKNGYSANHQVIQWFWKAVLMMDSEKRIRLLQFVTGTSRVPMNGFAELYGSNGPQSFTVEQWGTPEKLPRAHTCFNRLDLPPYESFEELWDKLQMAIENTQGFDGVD
UniProt O43676, whole entry, looked up: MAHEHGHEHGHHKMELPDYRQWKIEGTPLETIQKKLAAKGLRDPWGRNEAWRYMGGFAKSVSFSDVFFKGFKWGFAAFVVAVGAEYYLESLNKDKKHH

What was measured:
Test in all cases: log2 fold change, soluble protein after heating vs DMSO (PISA); higher = thermal stabilisation; K562 cells, 10 uM, 30 min; active = over 0.2 and 3.5 SD of the protein, either way, in both replicates (recomputed)
[1] = compound: NC(=O)Nc1cc(-c2cccc(F)c2)sc1C(=O)N[C@H]1CCCNC1
In short: (§1)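 Soluble protein was quantified by TMTpro 16plex LC-MS/MS after channel sums were equalised. It was obtained as the supernatant after 21,000xg for 90 min from pooled aliquots of K562 cells (2×10^6 cells/mL, 10 μM compound, 30 min) heated for 3 min across 48°C-58°C and extracted in PBS with 0.5% NP-40 at 4°C. Thermal stability values are relative to control samples and come from duplicates. They are given as log2 fold changes.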

[2] = compound: NC(=O)c1cnc(N[C@@H]2CCCC[C@@H]2N)nc1Nc1cccc(-n2nccn2)c1
In short: as §1

[3] = compound: NC1(c2ccc(-c3nc4ccn5c(=O)[nH]nc5c4cc3-c3ccccc3)cc2)CCC1
In short: as §1

[4] = compound: NCC(=O)Nc1ccc(-n2nc(C(F)(F)F)cc2-c2ccc3c(ccc4ccccc43)c2)cc1
In short: as §1

entinostat = compound: Nc1ccccc1NC(=O)c1ccc(CNC(=O)OCc2cccnc2)cc1 [entinostat]
In short: as §1

vorinostat = compound: O=C(CCCCCCC(=O)Nc1ccccc1)NO [vorinostat]
In short: as §1

citarinostat = compound: O=C(CCCCCCNC(=O)c1cnc(N(c2ccccc2)c2ccccc2Cl)nc1)NO [citarinostat]
In short: as §1

silmitasertib = compound: O=C(O)c1ccc2c(c1)nc(Nc1cccc(Cl)c1)c1ccncc12 [silmitasertib]
In short: as §1

[5] = compound: O=C1NC(=O)C(c2cnc3ccccn23)=C1c1cn2c3c(cc(F)cc13)CN(C(=O)N1CCCCC1)CC2
In short: as §1

[6] = compound: c1cc(OCCN2CCCCC2)cc(-c2n[nH]c3ccc(-c4nnc[nH]4)cc23)c1
In short: as §1

Measured: log2 fold change

NCAPH (UniProt Q15003)
inactive: [1] -0.086 | [2] -0.036 | [3] -0.092 | [4] -0.043 | entinostat 0.038 | vorinostat 0.029 | citarinostat 0.029 | silmitasertib 0.098 | [5] 0 | [6] -0.009

NASP (UniProt P49321)
inactive: [1] -0.009 | [2] -0.081 | [3] -0.06 | [4] -0.054 | entinostat 0.035 | vorinostat 0.028 | citarinostat 0.035 | silmitasertib 0.063 | [5] -0.034 | [6] -0.02

NAA30 (UniProt Q147X3)
inactive: [1] 0.022 | [2] 0.043 | [3] -0.028 | [4] 0.009 | entinostat 0.003 | vorinostat 0.079 | citarinostat 0.004 | silmitasertib 0.021 | [5] -0.137 | [6] 0.008

NDUFB9 (UniProt Q9Y6M9)
inactive: [1] -0.005 | [2] -0.02 | [3] -0.005 | [4] 0.001 | entinostat -0.011 | vorinostat 0.007 | citarinostat 0.011 | silmitasertib 0.005 | [5] -0.057 | [6] -0.056

NAV1 (UniProt Q8NEY1)
inactive: [1] -0.035 | [2] 0.192 | [3] -0.119 | [4] -0.061 | entinostat -0.094 | vorinostat -0.085 | citarinostat 0.03 | silmitasertib 0.029 | [5] 0.129 | [6] -0.041

NDE1 isoform 1 (UniProt Q9NXR1)
inactive: [1] 0.05 | [2] -0.004 | [3] -0.047 | [4] 0.026 | entinostat -0.014 | vorinostat -0.024 | citarinostat 0.036 | silmitasertib 0.035 | [5] -0.01 | [6] -0.034

NDOR1 isoform 2 (UniProt Q9UHB4)
inactive: [1] -0.037 | [2] 0.003 | [3] -0.05 | [4] 0.017 | entinostat -0.042 | vorinostat -0.016 | citarinostat -0.003 | silmitasertib 0.102 | [5] -0.05 | [6] -0.036

NAA15 (UniProt Q9BXJ9)
inactive: [1] -0.035 | [2] -0.03 | [3] -0.046 | [4] 0 | entinostat 0.001 | vorinostat 0.055 | citarinostat 0.022 | silmitasertib -0.011 | [5] -0.059 | [6] -0.024

NBN (UniProt O60934)
inactive: [1] -0.021 | [2] -0.037 | [3] -0.078 | [4] -0.067 | entinostat 0.127 | vorinostat 0.091 | citarinostat 0.009 | silmitasertib -0.055 | [5] -0.104 | [6] 0

NCS1 (UniProt P62166)
inactive: [1] -0.02 | [2] -0.052 | [3] -0.098 | [4] -0.007 | entinostat 0.002 | vorinostat -0.027 | citarinostat -0.005 | silmitasertib 0.044 | [5] 0.011 | [6] -0.031

NCAPG (UniProt Q9BPX3)
inactive: [1] -0.062 | [2] -0.036 | [3] -0.118 | [4] -0.06 | entinostat 0.073 | vorinostat 0.101 | citarinostat 0.067 | silmitasertib 0.1 | [5] 0.005 | [6] -0.016

NDUFB6 (UniProt O95139)
inactive: [1] -0.037 | [2] -0.106 | [3] -0.026 | [4] -0.11 | entinostat -0.032 | vorinostat -0.03 | citarinostat 0.036 | silmitasertib 0.053 | [5] -0.069 | [6] -0.104

NCALD (UniProt P61601)
inactive: [1] 0.01 | [2] 0.004 | [3] -0.038 | [4] 0.005 | entinostat 0.034 | vorinostat -0.019 | citarinostat -0.02 | silmitasertib 0.057 | [5] -0.035 | [6] -0.037

NCDN isoform 3 (UniProt Q9UBB6)
inactive: [1] 0.024 | [2] -0.023 | [3] -0.124 | [4] -0.017 | entinostat -0.005 | vorinostat -0.026 | citarinostat 0.026 | silmitasertib 0.15 | [5] -0.075 | [6] -0.021

NDUFS1 isoform 2 (UniProt P28331)
inactive: [1] -0.013 | [2] 0.003 | [3] -0.154 | [4] -0.043 | entinostat 0.007 | vorinostat 0.025 | citarinostat 0.018 | silmitasertib -0.066 | [5] -0.061 | [6] -0.051

NDUFS6 (UniProt O75380)
inactive: [1] 0.019 | [2] 0.044 | [3] 0.013 | [4] 0 | entinostat -0.092 | vorinostat -0.076 | citarinostat -0.069 | silmitasertib -0.009 | [5] 0.088 | [6] -0.025

NEDD4L (UniProt Q96PU5)
inactive: [1] -0.045 | [2] -0.062 | [3] -0.06 | [4] -0.074 | entinostat 0.075 | vorinostat 0.062 | citarinostat -0.001 | silmitasertib 0.114 | [5] -0.006 | [6] -0.034

NAXD (UniProt Q8IW45)
inactive: [1] 0.047 | [2] 0.042 | [3] 0.021 | [4] 0.014 | entinostat -0.065 | vorinostat -0.018 | citarinostat -0.009 | silmitasertib -0.043 | [5] -0.001 | [6] -0.1

NECTIN2 isoform 2 (UniProt Q92692)
inactive: [1] 0.072 | [2] 0.171 | [3] -0.194 | [4] 0.031 | entinostat -0.032 | vorinostat 0.087 | citarinostat 0.108 | silmitasertib -0.039 | [5] -0.495 | [6] 0.09

NEDD4 isoform 4 (UniProt P46934)
inactive: [1] -0.043 | [2] -0.027 | [3] -0.187 | [4] -0.074 | entinostat 0.029 | vorinostat -0.04 | citarinostat 0.084 | silmitasertib 0.064 | [5] -0.008 | [6] 0.013

NDUFS2 (UniProt O75306)
inactive: [1] 0.039 | [2] 0.009 | [3] -0.044 | [4] 0.037 | entinostat 0.043 | vorinostat 0.001 | citarinostat 0.04 | silmitasertib -0.012 | [5] -0.055 | [6] 0.007

NDUFAF2 (UniProt Q8N183)
inactive: [1] -0.039 | [2] -0.021 | [3] -0.01 | [4] -0.029 | entinostat -0.008 | vorinostat 0.032 | citarinostat 0.042 | silmitasertib -0.018 | [5] -0.045 | [6] -0.025

NCBP2 (UniProt P52298)
inactive: [1] -0.048 | [2] 0.023 | [3] -0.043 | [4] -0.041 | entinostat 0.013 | vorinostat -0.024 | citarinostat 0.08 | silmitasertib 0.022 | [5] -0.039 | [6] -0.078

Two records drawn at random from the list so far, as already listed:
NECTIN2 isoform 2 (UniProt Q92692)
inactive: [1] 0.072 | [2] 0.171 | [3] -0.194 | [4] 0.031 | entinostat -0.032 | vorinostat 0.087 | citarinostat 0.108 | silmitasertib -0.039 | [5] -0.495 | [6] 0.09

NDUFB9 (UniProt Q9Y6M9)
inactive: [1] -0.005 | [2] -0.02 | [3] -0.005 | [4] 0.001 | entinostat -0.011 | vorinostat 0.007 | citarinostat 0.011 | silmitasertib 0.005 | [5] -0.057 | [6] -0.056

The list continues.

N4BP1 (UniProt O75113)
inactive: [1] -0.023 | [2] -0.065 | [3] -0.098 | [4] -0.055 | entinostat -0.09 | vorinostat 0.056 | citarinostat 0.075 | silmitasertib 0.043 | [5] -0.133 | [6] -0.011

NDUFB3 (UniProt O43676)
inactive: [1] -0.02 | [2] -0.016 | [3] -0.037 | [4] -0.041 | entinostat -0.034 | vorinostat -0.035 | citarinostat 0.038 | silmitasertib 0.019 | [5] 0.001 | [6] -0.041

NAP1L1 (UniProt P55209)
inactive: [1] -0.084 | [2] 0.049 | [3] -0.01 | [4] -0.016 | entinostat 0.02 | vorinostat 0.008 | citarinostat -0.01 | silmitasertib 0.069 | [5] -0.038 | [6] 0.069

NCOR2 (UniProt C9J0Q5)
inactive: [1] -0.005 | [2] 0.066 | [3] -0.017 | [4] -0.049 | entinostat -0.056 | vorinostat -0.08 | citarinostat -0.071 | silmitasertib 0.037 | [5] -0.041 | [6] -0.016

NDUFB11 isoform 2 (UniProt Q9NX14)
inactive: [1] 0.017 | [2] -0.024 | [3] -0.002 | [4] -0.005 | entinostat 0.059 | vorinostat 0.007 | citarinostat 0.01 | silmitasertib -0.053 | [5] -0.029 | [6] 0

NDC1 (UniProt Q9BTX1)
inactive: [1] -0.074 | [2] -0.026 | [3] -0.019 | [4] -0.079 | entinostat 0.004 | vorinostat 0.021 | citarinostat -0.01 | silmitasertib -0.015 | [5] -0.139 | [6] 0.003
